Measurements published in doi:10.1101/2023.06.10.544440.
These are yes or no findings as the source states them, for the method shown. Binding seen in cells or lysates may run through a third protein. Some entries that bind do so weakly or less than the wild type.

By UniProt entry, the sequences of proteins in these tests, tags left out. Residues count along the entry.
UniProt Q66HY7, 44-224: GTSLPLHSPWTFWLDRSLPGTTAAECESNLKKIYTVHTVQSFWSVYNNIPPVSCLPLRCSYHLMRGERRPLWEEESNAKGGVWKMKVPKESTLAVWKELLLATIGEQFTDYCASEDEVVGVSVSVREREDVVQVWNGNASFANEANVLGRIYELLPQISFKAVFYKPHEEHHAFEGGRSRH
UniProt Q9DFS6, 34-215: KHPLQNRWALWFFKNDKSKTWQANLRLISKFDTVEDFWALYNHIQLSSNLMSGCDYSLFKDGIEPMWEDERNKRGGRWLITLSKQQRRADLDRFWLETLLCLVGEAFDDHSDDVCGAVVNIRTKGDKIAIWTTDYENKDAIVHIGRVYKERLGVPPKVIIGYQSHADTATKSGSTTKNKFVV
UniProt Q04637, 608-647: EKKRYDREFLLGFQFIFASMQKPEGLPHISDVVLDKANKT
UniProt Q13541, 50-83: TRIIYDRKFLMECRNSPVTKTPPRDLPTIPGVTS

How the values were obtained:
Experiment in all cases: pull-down
[1] = molecular target: zebrafish eIF4E2 (52-236) (zebrafish)
[2] = molecular target: T1, mouse eIF4E1B (63-244) (mouse) (UniProt Q3UTA9)
T1 sequence: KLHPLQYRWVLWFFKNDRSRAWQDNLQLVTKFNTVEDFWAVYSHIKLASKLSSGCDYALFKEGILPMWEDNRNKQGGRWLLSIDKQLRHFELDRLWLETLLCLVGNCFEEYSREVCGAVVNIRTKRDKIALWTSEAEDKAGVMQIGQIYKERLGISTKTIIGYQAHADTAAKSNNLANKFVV

[3] = molecular target: T2, human eIF4E1B (60-242) (human) (UniProt A6NMX2)
T2 sequence: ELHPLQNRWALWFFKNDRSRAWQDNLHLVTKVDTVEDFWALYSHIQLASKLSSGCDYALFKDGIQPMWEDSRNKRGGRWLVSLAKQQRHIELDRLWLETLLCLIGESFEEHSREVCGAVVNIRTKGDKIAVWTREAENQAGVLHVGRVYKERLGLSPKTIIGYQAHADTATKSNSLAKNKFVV

[4] = molecular target: zebrafish eIF4E3 (44-224) (zebrafish) (UniProt Q66HY7)
[5] = molecular target: zebrafish eIF4Ea (34-215) (zebrafish) (UniProt Q9DFS6)
[6] = molecular target: T3, mouse eIF4E1B (63-244) Lys108 to Glu (mouse) (UniProt Q3UTA9)
T3 sequence: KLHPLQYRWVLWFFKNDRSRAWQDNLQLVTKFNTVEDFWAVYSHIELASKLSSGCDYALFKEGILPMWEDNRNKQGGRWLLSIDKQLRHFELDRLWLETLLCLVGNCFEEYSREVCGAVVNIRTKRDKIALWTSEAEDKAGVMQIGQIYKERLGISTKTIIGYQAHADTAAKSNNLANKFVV

[7] = molecular target: T4, mouse eIF4E1B (63-244) Lys112 to Asn (mouse) (UniProt Q3UTA9)
T4 sequence: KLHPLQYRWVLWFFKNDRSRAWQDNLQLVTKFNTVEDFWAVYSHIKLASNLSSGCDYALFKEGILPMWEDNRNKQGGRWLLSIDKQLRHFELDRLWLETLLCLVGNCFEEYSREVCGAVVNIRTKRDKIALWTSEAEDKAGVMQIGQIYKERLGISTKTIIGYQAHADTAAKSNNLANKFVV

For “eIF4E-binding motif of human eIF4G (608-647) (from UniProt Q04637 608-647) (domain or fragment)”, the binding [1] was “no binding”, the binding [2] was “no binding” and the binding [3] was “no binding”. The binding [4] was “binds” and the binding [5] was “binds”.

With “eIF4E-binding motif of human eIF4EBP1 (50-83) (from UniProt Q13541 50-83) (domain or fragment)” the binding [2] was “binds”, the binding [3] was “binds” and the binding [5] was “binds”.

B1: eIF4E-binding motif of human eIF4ENIF1 (27-63) (domain or fragment, UniProt Q9NRA8 27-63)
chain: PHRYTKEELLDIKELPHSKQRPSCLSEKYDSDGVWDP
In the case of B1, the binding [2] is reported as “binds”, the binding [6] is reported as “binds” and the binding [3] is reported as “binds”. The binding [7] was “binds” and the binding [5] was “binds”.
